These are yes or no findings as the source states them, for the method shown. Binding seen in cells or lysates may run through a third protein. Some results given as binding are weak or reduced against the parent protein; the word gives no strength.
Legend:
[1] = biological target: T1, Human canonical CRB1 (Crumbs homolog 1) (human) (UniProt P82279); experiment: co-IP; HEK293T cells co-transfected pairwise with a FLAG and an HA construct, 48 h; lysis in TBS (30 mM Tris-HCl pH 7.4, 150 mM NaCl) with 0.5% Nonidet P40; FLAG-IP on ANTI-FLAG M2 Affinity Gel 60-90 min at 4°C, elution with FLAG peptide; Western blot with HA and FLAG antibodies; for mutants HA/FLAG signal in eluates relative to WT, three biological replicates
T1 sequence: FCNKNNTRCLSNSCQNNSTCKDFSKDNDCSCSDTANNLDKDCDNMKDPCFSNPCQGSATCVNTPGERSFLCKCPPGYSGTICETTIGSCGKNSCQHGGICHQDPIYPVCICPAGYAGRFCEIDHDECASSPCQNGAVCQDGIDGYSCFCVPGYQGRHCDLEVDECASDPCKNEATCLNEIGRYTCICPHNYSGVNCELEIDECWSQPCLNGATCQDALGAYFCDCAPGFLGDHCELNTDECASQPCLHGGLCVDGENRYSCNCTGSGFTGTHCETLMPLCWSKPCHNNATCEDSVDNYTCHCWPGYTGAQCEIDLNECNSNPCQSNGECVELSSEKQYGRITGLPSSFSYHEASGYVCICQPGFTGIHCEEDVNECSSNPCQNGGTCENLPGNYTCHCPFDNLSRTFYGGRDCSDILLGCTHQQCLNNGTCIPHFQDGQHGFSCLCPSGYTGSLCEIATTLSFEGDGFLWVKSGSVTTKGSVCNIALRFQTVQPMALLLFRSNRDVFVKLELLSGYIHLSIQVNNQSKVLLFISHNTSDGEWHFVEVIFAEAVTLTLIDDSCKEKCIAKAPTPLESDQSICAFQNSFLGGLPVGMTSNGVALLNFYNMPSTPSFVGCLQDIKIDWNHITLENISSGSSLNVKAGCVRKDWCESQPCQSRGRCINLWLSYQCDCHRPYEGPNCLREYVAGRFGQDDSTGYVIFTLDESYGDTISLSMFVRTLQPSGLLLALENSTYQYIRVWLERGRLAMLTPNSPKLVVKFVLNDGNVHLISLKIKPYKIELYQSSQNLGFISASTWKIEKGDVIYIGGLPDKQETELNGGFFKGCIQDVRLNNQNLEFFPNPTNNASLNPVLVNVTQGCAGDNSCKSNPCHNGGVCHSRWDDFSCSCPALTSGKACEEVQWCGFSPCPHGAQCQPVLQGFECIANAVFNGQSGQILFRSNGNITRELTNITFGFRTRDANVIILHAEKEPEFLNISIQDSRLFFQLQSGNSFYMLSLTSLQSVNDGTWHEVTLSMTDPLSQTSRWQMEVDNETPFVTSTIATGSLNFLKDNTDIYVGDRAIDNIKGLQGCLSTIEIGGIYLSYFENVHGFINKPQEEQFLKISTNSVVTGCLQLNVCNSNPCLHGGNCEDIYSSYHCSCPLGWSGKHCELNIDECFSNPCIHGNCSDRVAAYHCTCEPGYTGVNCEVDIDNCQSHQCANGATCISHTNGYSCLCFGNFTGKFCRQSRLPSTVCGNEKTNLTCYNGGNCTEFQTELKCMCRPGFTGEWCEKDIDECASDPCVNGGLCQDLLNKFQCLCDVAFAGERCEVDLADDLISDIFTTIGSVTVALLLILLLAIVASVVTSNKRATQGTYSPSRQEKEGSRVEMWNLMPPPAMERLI

Sequences of proteins named here, by UniProt entry; tags and fusion partners are left off. A change or cut given only in a name is not applied to a line headed by its entry. Residues count along the entry.
UniProt Q5IJ48, residues 29-1285: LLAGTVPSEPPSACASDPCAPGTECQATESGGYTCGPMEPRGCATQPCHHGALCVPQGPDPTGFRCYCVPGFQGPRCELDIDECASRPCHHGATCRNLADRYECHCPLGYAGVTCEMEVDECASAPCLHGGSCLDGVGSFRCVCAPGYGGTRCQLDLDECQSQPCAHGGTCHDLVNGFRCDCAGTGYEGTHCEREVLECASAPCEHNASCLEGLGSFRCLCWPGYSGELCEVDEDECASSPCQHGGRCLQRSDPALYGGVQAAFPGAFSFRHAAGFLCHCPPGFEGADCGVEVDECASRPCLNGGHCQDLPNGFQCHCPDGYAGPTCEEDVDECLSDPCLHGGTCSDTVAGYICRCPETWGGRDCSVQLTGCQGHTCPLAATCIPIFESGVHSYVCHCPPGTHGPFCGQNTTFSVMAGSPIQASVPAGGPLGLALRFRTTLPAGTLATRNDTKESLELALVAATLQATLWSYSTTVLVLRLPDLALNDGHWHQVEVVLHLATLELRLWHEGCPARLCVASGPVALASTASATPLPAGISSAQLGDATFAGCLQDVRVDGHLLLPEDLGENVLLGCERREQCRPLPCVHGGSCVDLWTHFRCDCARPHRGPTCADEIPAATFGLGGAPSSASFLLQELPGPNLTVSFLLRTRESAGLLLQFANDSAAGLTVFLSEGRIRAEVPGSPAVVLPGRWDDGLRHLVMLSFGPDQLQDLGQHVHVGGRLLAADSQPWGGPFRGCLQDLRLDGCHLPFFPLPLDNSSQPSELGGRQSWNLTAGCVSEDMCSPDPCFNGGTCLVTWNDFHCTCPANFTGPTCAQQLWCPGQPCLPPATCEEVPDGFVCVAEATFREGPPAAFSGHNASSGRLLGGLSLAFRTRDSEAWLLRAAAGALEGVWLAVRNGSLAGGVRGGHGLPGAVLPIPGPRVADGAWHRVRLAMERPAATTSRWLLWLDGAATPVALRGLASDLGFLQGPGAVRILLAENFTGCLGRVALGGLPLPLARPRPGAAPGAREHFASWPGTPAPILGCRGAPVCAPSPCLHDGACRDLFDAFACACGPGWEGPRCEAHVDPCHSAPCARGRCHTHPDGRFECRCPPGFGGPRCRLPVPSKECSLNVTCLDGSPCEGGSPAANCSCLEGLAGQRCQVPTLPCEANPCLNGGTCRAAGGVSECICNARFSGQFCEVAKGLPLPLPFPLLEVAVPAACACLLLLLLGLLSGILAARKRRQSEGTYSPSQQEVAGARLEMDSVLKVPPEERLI

[2] = biological target: Human canonical CRB2 (Crumbs homolog 2) (human) (UniProt Q5IJ48); experiment: as above

binding [1]: binds | binding [2]: binds
Substance: Human canonical CRB2 (Crumbs homolog 2) (from UniProt Q5IJ48-1 29-1285)
